# In the supplement of paper PMC3334620:
# Over roughly 33,000 sequences, “E-score (-0.5 to 0.5)” has its median near -0.016; the highest 2% begin near 0.3. This is one part of the list.
# Biological target: T1, Yer184c (UniProt P39961)
# T1 sequence: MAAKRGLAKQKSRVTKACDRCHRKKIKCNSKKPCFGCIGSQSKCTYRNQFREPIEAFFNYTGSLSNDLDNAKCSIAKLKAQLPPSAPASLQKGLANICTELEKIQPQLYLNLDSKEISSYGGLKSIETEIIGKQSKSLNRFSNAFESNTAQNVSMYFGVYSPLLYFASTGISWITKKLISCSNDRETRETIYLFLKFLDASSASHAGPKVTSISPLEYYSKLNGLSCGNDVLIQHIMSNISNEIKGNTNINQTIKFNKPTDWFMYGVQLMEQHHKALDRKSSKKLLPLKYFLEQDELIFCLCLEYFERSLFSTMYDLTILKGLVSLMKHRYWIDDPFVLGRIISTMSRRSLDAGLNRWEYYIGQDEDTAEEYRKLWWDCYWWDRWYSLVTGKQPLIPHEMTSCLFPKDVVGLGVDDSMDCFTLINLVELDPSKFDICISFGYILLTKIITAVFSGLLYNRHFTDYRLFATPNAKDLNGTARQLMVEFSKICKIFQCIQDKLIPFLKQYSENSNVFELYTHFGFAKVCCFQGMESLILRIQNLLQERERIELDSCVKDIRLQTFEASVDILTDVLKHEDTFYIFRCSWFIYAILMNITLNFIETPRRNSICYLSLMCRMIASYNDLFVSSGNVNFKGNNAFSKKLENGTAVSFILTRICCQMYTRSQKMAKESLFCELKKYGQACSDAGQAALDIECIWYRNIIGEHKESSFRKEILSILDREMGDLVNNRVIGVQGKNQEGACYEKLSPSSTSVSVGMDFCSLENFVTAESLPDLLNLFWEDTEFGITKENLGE
# Assay: PBM E-score (8-mer binding enrichment) (E-score (-0.5 to 0.5)); higher = stronger / more preferred TF binding
# Conditions: protein concentration: 100 nM; construct: GST-full length
# How it was run: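 Each ungapped eight-base word and its reverse complement, pooled, received an E-score from the Universal PBM Analysis Suite. Underlying scans, normalised with masliner, recorded fluorescent anti-GST bound to GST-tagged yeast transcription factors. These were applied at about 100-200 nM to universal all-10-mer Agilent arrays double-stranded by primer extension.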
row,Sequence,PBM E-score
1,AATCGATT,0.0566
2,CAGCCACA,-0.0284
3,CCCAAGCC,-0.0587
4,CTGGCACC,-0.228
5,CAACGGTA,-0.0364
6,ATAAGGAC,0.171
7,ACACGTGC,-0.104
8,ACGGGAGC,-0.0391
9,CACAGCAG,-0.114
10,CCAGATGA,-0.0503
11,TAGGTCCA,-0.0628
12,ATTATCAC,0.145
13,TATCTTAA,0.152
14,AATACGTA,0.032
15,GGTGTTAA,0.0806
16,GCCGGTCA,0.209
17,ACCATTGC,-0.0741
18,GCGAAACA,0.0488
19,CGAGTTAC,0.14
20,CTCACGAG,-0.175
21,CTCAATTC,0.109
22,AGAGGTTC,-0.0469
23,ATCATGCA,-0.208
24,GTGTGTAA,-0.0604
25,ACGATCGT,0.059

row,Sequence,PBM E-score
1,AGAACCAC,-0.135
2,GGCCTGTA,-0.208
3,CCTCTTGA,-0.172
4,GTGGGGAA,0.0128
5,AAGGCCAT,-0.2
6,CTGCGCAC,-0.081
7,GATCACAA,0.114
8,ATATACAA,0.219
9,TATCAAAA,0.152
10,CTCGTCAC,0.172
11,ACTACATC,-0.0349
12,CAACTTTA,0.126
13,GAAACGGC,0.131
14,CCAAGCAC,-0.204
15,GCCCGAGA,0.24
16,GGACGAAC,0.254
17,AAATAATG,0.164
18,CCGAATAC,0.293
19,GCTAAGCA,-0.0771
20,CGTTGTAA,-0.0356
21,GTAAGATA,0.175
22,ACCCTGGC,-0.231
23,AACGTAGT,-0.00554
24,ATATGGTA,0.00546
25,CACATTGA,0.0556

row,Sequence,PBM E-score
1,GGCTCATA,-0.0301
2,CATTCCGA,0.278
3,CTGATAGC,-0.0696
4,GGGGCCCA,-0.29
5,CAAATCAG,0.0212
6,TACGACGA,-0.0411
7,ACCCCAAA,-0.136
8,AGCACCTC,-0.065
9,CCTAAATA,-0.0799
10,AACAAGGG,-0.109
11,ATATTTCA,0.201
12,AAGATCTG,0.0471
13,CTCCCAAA,0.0357
14,CGCATCAA,0.0995
15,AAAATGGT,0.195
16,AAACAAAC,0.141
17,ATTGACCC,0.0514
18,ACTCAACG,-0.0289
19,ACGGCGCT,-0.0793
20,ACTTAAGG,0.0766
21,ATAGGTGG,-0.193
22,AAACCGTG,-0.00637
23,ACTTTTGG,0.0221
24,TATCCATA,0.133
25,CCGTTACA,0.147

# Copied from above (5 entries):
row,Sequence,PBM E-score
24,ATATGGTA,0.00546
25,CACATTGA,0.0556
1,GGCTCATA,-0.0301
2,CATTCCGA,0.278
3,CTGATAGC,-0.0696

# (further entries)

row,Sequence,PBM E-score
1,CCTGCAGC,-0.0738
2,GCCGCATA,0.185
3,AGTTAGTG,0.00554
4,AAATAGAT,0.243
5,TATCGGGA,0.105
6,TGCCAACA,0.0644
7,TGTAGGAA,-0.0799
8,ATGTCCTA,-0.0127
9,ACATCCCT,0.00032
10,AAATACCG,0.271
11,AGGTTGAA,0.0439
12,CACGTCCC,-0.261
13,AAGAGCTG,-0.0953
14,TTATAGAA,0.202
15,CGCCACAG,-0.186
16,AGGCCCAA,-0.0831
17,ATTGAAAG,0.014
18,CCGAAATA,0.34
19,CCTGTTTC,-0.115
20,AGCAGTCA,-0.198
21,CGATTCCG,0.218
22,CTCGTAGA,-0.253
23,AGCTTACA,0.0783
24,TAGCGGCA,0.136
25,GGGAGGAA,0.0275

# Laid out differently: entries from further up
row	Sequence	PBM E-score
19	CCTGTTTC	-0.115
20	AGCAGTCA	-0.198

# Going on with the list.

row,Sequence,PBM E-score
1,AAACCAGC,0.0764
2,GAAGTGGA,0.0603
3,ACCGGCGA,0.284
4,CTCTATAA,0.0398
5,CATATAGG,-0.0617
6,TACTGACA,0.146
7,ATAAGCAC,-0.0228
8,ACTGTGAT,-0.0878
9,AAACTATC,0.144
10,ACATCATC,-0.102
11,CTGGGTGC,-0.325
12,GGCCAATA,-0.0246
13,GAGAGCTA,-0.106
14,AACGACGA,0.121
15,GAAGATGA,-0.00959
16,ACCGTACA,0.0254
17,GTACGCCA,-0.241
18,ACTAAACG,0.0312
19,CTGACTAC,-0.182
20,GGAGTATA,0.0676
21,GACCTCCA,-0.121
22,TCCGGCGA,0.38
23,AACGCGGC,0.0651
24,CCGGACAA,0.29
25,CGGTCTTC,0.0284

row,Sequence,PBM E-score
1,GTGATCGA,0.115
2,ATGAATGA,0.0473
3,GGAAAGCC,0.0411
4,CCCATGAG,-0.296
5,GTCCCTTA,-0.114
6,ATTGGCCA,-0.148
7,TGGTGCAA,-0.134
8,GTTCTGGA,0.0262
9,AGTGGTAT,-0.154
10,AATCGCCA,-0.18
11,TCCCGAAA,0.196
12,TCAAGGAA,-0.00111
13,AAGAGTGC,-0.165
14,ACAAGTAT,0.0335
15,AATTTGGT,0.162
16,AGACTTAC,-0.243
17,ATGCTCCG,0.113
18,ACCACCCA,-0.14
19,AATGGATG,0.0225
20,ACAGGTAA,0.0433
21,ACACAACA,0.185
22,AATGTTTC,0.0956
23,GTGACTAA,0.097
24,GCCTAAGA,-0.0772
25,GAGTCCGA,0.181

row,Sequence,PBM E-score
1,ACCCACGA,-0.154
2,ATATCTCA,0.185
3,GAGGCTGA,-0.172
4,GGCGAGTA,-0.0743
5,TACGAGTA,0.0407
6,AAGTAAGC,0.00484
7,CCGAGGTC,0.136
8,TCTCCTCA,-0.269
9,GGAGTCTA,-0.317
10,ATCCTTAA,-0.129
11,CTTCCCAA,-0.0377
12,GATATAAC,0.124
13,GTGGGGGA,-0.4
14,CGATTGGC,-0.027
15,ATCACCCG,-0.0106
16,CTCGTCCC,-0.167
17,CTCCAGCC,-0.233
18,ATTATTTG,0.111
19,ACCTTTCG,-0.00772
20,GTCTCTGA,0.0262
21,CGCTTTAA,0.0403
22,AATGTCAC,0.0453
